# Laboratory results published in patent US20140335107A1.
# By UniProt entry, the sequences of proteins in these tests, tags left out. Where a name states a change or a piece, a line headed by the entry shows the natural chain unless it says otherwise.
# UniProt P40259: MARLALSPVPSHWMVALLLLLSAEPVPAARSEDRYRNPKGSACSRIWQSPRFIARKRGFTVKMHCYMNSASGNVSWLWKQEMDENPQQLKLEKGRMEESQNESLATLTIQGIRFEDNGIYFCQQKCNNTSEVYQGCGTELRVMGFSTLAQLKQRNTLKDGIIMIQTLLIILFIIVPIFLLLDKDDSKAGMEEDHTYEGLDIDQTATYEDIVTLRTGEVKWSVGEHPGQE
# No constants are given. Whether binding was seen depends on the method and setting. Some entries that bind do so weakly or less than the wild type.
# Target: extracellular domain of human CD79b (huCD79becd) (human) (UniProt P40259)
# Assay: phage selection, Fab on phage
row,Binder,binding
1,"huMA79b graft variant with HVR-H1 of SEQ ID NO: 67 (H1-1), Fab (Fab, name in Kabat numbering, V domains shown) VH: EVQLVESGGGLVQPGGSLRLSCAASGYPFNRYWINWVRQAPGKGLEWVGEILPGGGDTNYNEIFKGRFTISADTSKNTAYLQMNSLRAEDTAVYYCTRRVPVYFDYWGQGTLVTVSS VL: DIQMTQSPSSLSASVGDRVTITCKASQSVDYDGDSFLNWYQQKPGKAPKLLIYAASNLESGVPSRFSGSGSGTDFTLTISSLQPEDFATYYCQQSNEDPLTFGQGTKVEIKR",binds
2,"huMA79b graft variant with HVR-H3 of SEQ ID NO: 106 (Fab, name in Kabat numbering, V domains shown) VH: EVQLVESGGGLVQPGGSLRLSCAASGYTFSSYWIEWVRQAPGKGLEWVGEILPGGGDTNYNEIFKGRFTISADTSKNTAYLQMNSLRAEDTAVYYCTRRIPVYFDYWGQGTLVTVSS VL: DIQMTQSPSSLSASVGDRVTITCKASQSVDYDGDSFLNWYQQKPGKAPKLLIYAASNLESGVPSRFSGSGSGTDFTLTISSLQPEDFATYYCQQSNEDPLTFGQGTKVEIKR",binds
3,"huMA79b graft variant with HVR-H3 of SEQ ID NO: 102 (Fab, name in Kabat numbering, V domains shown) VH: EVQLVESGGGLVQPGGSLRLSCAASGYTFSSYWIEWVRQAPGKGLEWVGEILPGGGDTNYNEIFKGRFTISADTSKNTAYLQMNSLRAEDTAVYYCTRRVPVFLDYWGQGTLVTVSS VL: DIQMTQSPSSLSASVGDRVTITCKASQSVDYDGDSFLNWYQQKPGKAPKLLIYAASNLESGVPSRFSGSGSGTDFTLTISSLQPEDFATYYCQQSNEDPLTFGQGTKVEIKR",binds

# Other lines, results leading:
row,binding,Binder
1,binds,"huMA79b graft variant with HVR-H3 of SEQ ID NO: 105 (Fab, name in Kabat numbering, V domains shown) VH: EVQLVESGGGLVQPGGSLRLSCAASGYTFSSYWIEWVRQAPGKGLEWVGEILPGGGDTNYNEIFKGRFTISADTSKNTAYLQMNSLRAEDTAVYYCTRRRPVCLDYWGQGTLVTVSS VL: DIQMTQSPSSLSASVGDRVTITCKASQSVDYDGDSFLNWYQQKPGKAPKLLIYAASNLESGVPSRFSGSGSGTDFTLTISSLQPEDFATYYCQQSNEDPLTFGQGTKVEIKR"
2,binds,"huMA79b graft variant with HVR-H3 of SEQ ID NO: 101 (Fab, name in Kabat numbering, V domains shown) VH: EVQLVESGGGLVQPGGSLRLSCAASGYTFSSYWIEWVRQAPGKGLEWVGEILPGGGDTNYNEIFKGRFTISADTSKNTAYLQMNSLRAEDTAVYYCTRRVPVRFDYWGQGTLVTVSS VL: DIQMTQSPSSLSASVGDRVTITCKASQSVDYDGDSFLNWYQQKPGKAPKLLIYAASNLESGVPSRFSGSGSGTDFTLTISSLQPEDFATYYCQQSNEDPLTFGQGTKVEIKR"

# Target: human CD79b (human) (UniProt P40259)
# Assay: FACS on DoHH-2 cells, Fab (data not shown)
row,binding,Binder
1,binds,"huMA79b graft variant with HVR-H1 of SEQ ID NO: 67 (H1-1), Fab (Fab, name in Kabat numbering, V domains shown) VH: EVQLVESGGGLVQPGGSLRLSCAASGYPFNRYWINWVRQAPGKGLEWVGEILPGGGDTNYNEIFKGRFTISADTSKNTAYLQMNSLRAEDTAVYYCTRRVPVYFDYWGQGTLVTVSS VL: DIQMTQSPSSLSASVGDRVTITCKASQSVDYDGDSFLNWYQQKPGKAPKLLIYAASNLESGVPSRFSGSGSGTDFTLTISSLQPEDFATYYCQQSNEDPLTFGQGTKVEIKR"
